Percent effect of library compounds

Source: ChEMBL document CHEMBL3988442, “University of Dundee, Small-Polar-MMV Screening Library” (2021).

Mtb cholesterol medium: 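Whole-cell growth test on Mycobacterium tuberculosis, read after 4 days in a medium based on cholesterol and the lipid DPPC; the read-out is not stated. Concentration: 50 µM. Direction is inferred from retests: higher values go with more growth inhibition. Size under these conditions: about 69,000 compounds, about 370 of them at 50% or above in at least one test.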
Mtb glucose medium: 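Whole-cell growth test on Mycobacterium tuberculosis, read after 3 days in glucose-containing 7H9 medium; the read-out is not stated. Tested at 50 µM. Direction is inferred from retests: higher values go with more growth inhibition. About 69,000 compounds were tested under these conditions; 1.1% (about 760) showed 50% or more at least once.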

Each number is a percent effect as filed. How 0% and 100% were set is not recorded. Most values in the screen are low, and negative values occur. The compounds are a random part of those screened. Two or more numbers in one place are separate tests of the same structure; such repeats can differ widely.

* Cc1cccc(I)c1C(=O)NCc1ncc[nH]1 | Mtb cholesterol medium: -18.99% & -1.34%; Mtb glucose medium: 3.113% & 7.922%
* c1csc(-c2noc(CNC3CCc4ncnn4C3)n2)c1 (stereo unspecified) | Mtb cholesterol medium: 1.767%; Mtb glucose medium: 0.6139%
* O=C(C1CCOCC1)N1CCC(OCc2cccnc2)CC1 | Mtb cholesterol medium: -17.6%; Mtb glucose medium: -10.91%
* CCc1nn(C)c(CC)c1CNC(=O)Nc1cccc([S+](C)[O-])c1 (stereo unspecified) | Mtb cholesterol medium: 1.246%; Mtb glucose medium: -45.6%
* c1cncc(COCC2CN(Cc3ccncc3)Cc3ccnn3C2)c1 (stereo unspecified) | Mtb cholesterol medium: -2.925% & 5.21%; Mtb glucose medium: 4.227% & -1.642%
* Cc1cc(NCCc2c[nH]cn2)nc(-c2cccnc2)n1 | Mtb cholesterol medium: 0.9369%; Mtb glucose medium: -21.1%
* COCCSc1ccc(C(C)NC(=O)Nc2cccnc2)cc1 (stereo unspecified) | Mtb cholesterol medium: 11.45%; Mtb glucose medium: 28.43% & 19.67%
* CN(Cc1cccs1)Cc1nnsc1Cl | Mtb cholesterol medium: 8.892%; Mtb glucose medium: 3.296%
* CC(C)c1cc(C(=O)N2CCC3(CCc4ccccc4C(=O)N3)C2)no1 (stereo unspecified) | Mtb cholesterol medium: -5.904% & -8.651%; Mtb glucose medium: -0.8295%
* O=C(O)C(F)(F)F.[H][C@@]12OCCN(CC3CCC3)[C@@]1([H])CC[C@H]2OCC | Mtb cholesterol medium: -8.208%; Mtb glucose medium: 2.482%
* Cc1oc(-c2nc(C#N)c(NC3CC3)o2)cc1S(=O)(=O)N1CCCC1 | Mtb cholesterol medium: -1.409%; Mtb glucose medium: 20.35%
* Cc1cnn(CC2CCCN2c2ncnc3ccsc23)c1 (stereo unspecified) | Mtb cholesterol medium: 17.07%; Mtb glucose medium: 27.43%
* CCn1ccnc1CN1CCCC1Cn1cc(C)cn1 (stereo unspecified) | Mtb cholesterol medium: 26.62%; Mtb glucose medium: 87.27%
* CC1c2ncc(COc3cccnc3)n2CCN1Cc1cnn(C)c1.O=C(O)C(F)(F)F.O=C(O)C(F)(F)F (stereo unspecified) | Mtb cholesterol medium: -12.93%; Mtb glucose medium: -5.711%
* CN(C)c1ccc(NC(=O)N2CCCC2c2ccsc2)cn1 (stereo unspecified) | Mtb cholesterol medium: -3.075%; Mtb glucose medium: -21.15%
* CCc1noc(C(C)N(C)CC(=O)Nc2c(C)cccc2C)n1 (stereo unspecified) | Mtb cholesterol medium: -22.11%; Mtb glucose medium: -8.587% & 0.2815%
* Cc1ncsc1CN1CC[C@H](O)[C@@H](n2cnc3c(N)ncnc32)CC1 | Mtb cholesterol medium: -16.57%; Mtb glucose medium: -29.42%
* COC1CCN(C(=O)Cc2csc(-c3ccc(F)cc3)n2)CC1 | Mtb cholesterol medium: -1.182%; Mtb glucose medium: -15.75%
* Cc1cc(CN(C)C(=O)CNS(=O)(=O)c2cccs2)no1 | Mtb cholesterol medium: -1.84%; Mtb glucose medium: -6.716% & -22.82%
* [H][C@]12CN(C(=O)c3ncoc3C)CC[C@@]1(O)CCN(C(=O)N1CCCC1)C2 | Mtb cholesterol medium: -11.82%; Mtb glucose medium: -16.6%
* CO[C@@H]1CCN(S(=O)(=O)c2cn(C)cn2)[C@H]1Cc1ccccc1 | Mtb cholesterol medium: -0.6809%; Mtb glucose medium: -4.215% & 9.539%
* O=C(CN1CCc2ccccc21)Nc1ccc(OC(F)F)cc1 | Mtb cholesterol medium: 16.63%; Mtb glucose medium: -0.5754% & 5.752%
* O=C(Cc1ccon1)NC1CCCN(c2ccccc2F)C1=O (stereo unspecified) | Mtb cholesterol medium: -4.118%; Mtb glucose medium: -3.747%
* Cc1ccsc1C(=O)N1CCCn2c(nc(CN(C)C)cc2=O)C1.O=C(O)C(F)(F)F | Mtb cholesterol medium: -2.472%; Mtb glucose medium: -5.516% & -21.22%
* N#Cc1cccc(C(=O)NS(=O)(=O)c2ccc(C#N)c(Cl)c2)c1 | Mtb cholesterol medium: -16.38%; Mtb glucose medium: -18.25%
* COc1ccc2nc(C3CC3)cc(C(=O)NCc3ncnn3C)c2c1 | Mtb cholesterol medium: 15.87%; Mtb glucose medium: 28.74%
* CC(C)OC[C@H]1CCC[C@]12CN(S(=O)(=O)c1cccs1)CCO2 | Mtb cholesterol medium: -10.25%; Mtb glucose medium: 8.889% & -0.8121%
* Cc1ccc(S(=O)(=O)N2CC(C)Oc3ncccc32)c(C)c1 (stereo unspecified) | Mtb cholesterol medium: -8.099%; Mtb glucose medium: 5.881% & 4.595%
* [H][C@@]12C[C@H](C)O[C@]1([H])CCN(C(=O)c1occc1C)C2 | Mtb cholesterol medium: 14.39%; Mtb glucose medium: 24.11%
* Cc1nc(C)n(C2CCCN(C(=O)c3ccc(F)c(F)c3)C2)n1 (stereo unspecified) | Mtb cholesterol medium: 4.041%; Mtb glucose medium: 14.75%
* COC1CCN(C(=O)Cn2cccc(C(F)(F)F)c2=O)C1 (stereo unspecified) | Mtb cholesterol medium: -6.708% & 3.097%; Mtb glucose medium: -9.246% & -0.6584%
* [H][C@]12CNC[C@@]1(C(=O)NCCC1(O)CCN(C)CC1)CN(C1CCCC1)C2 | Mtb cholesterol medium: -42.86%; Mtb glucose medium: 10.24%
* CC(C)Nc1nc2c(c(NC3CC3)n1)CN(C(=O)c1ccncc1)CC2 | Mtb cholesterol medium: -24.52%; Mtb glucose medium: 1.093% & -20.16%
* CCc1nnsc1C(=O)N1CCCN(Cc2cnn(CC)c2)CC1 | Mtb cholesterol medium: 6.097%; Mtb glucose medium: 4.904%
* CCn1cc2c(n1)CN(Cc1sccc1C)CC2COCC1CC1.O=C(O)C(F)(F)F (stereo unspecified) | Mtb cholesterol medium: 40.82%; Mtb glucose medium: 30.9%
* O=C(Cc1ccccc1)NCc1ccc(-c2ccccc2C(=O)O)cn1 | Mtb cholesterol medium: -4.032% & -1.364%; Mtb glucose medium: -25.79%
* COc1ccc(CN(C)CC(=O)NC2(C)CCS(=O)(=O)C2)cc1F (stereo unspecified) | Mtb cholesterol medium: 5.421%; Mtb glucose medium: -3.04%
* COCC(O)CN1CCC(=O)N(CC(=O)C(C)(C)C)Cc2ccccc21 (stereo unspecified) | Mtb cholesterol medium: -11.25%; Mtb glucose medium: 2.285%
* [H][C@@]12C[C@@H](c3noc(C)n3)O[C@]1([H])CN(Cc1ccc3c(c1)OCO3)C2 | Mtb cholesterol medium: -6.772%; Mtb glucose medium: 9.265%
* COc1ccccc1C(=O)N1CC2(COC(C)(C)OC2)C1 | Mtb cholesterol medium: -15.01%; Mtb glucose medium: -3.538% & 4.385%

For reference, 2 entries once more:

| SMILES | Mtb cholesterol medium | Mtb glucose medium |
|---|---|---|
| `O=C(Cc1ccon1)NC1CCCN(c2ccccc2F)C1=O` (stereo unspecified) | -4.118 | -3.747 |
| `CCn1ccnc1CN1CCCC1Cn1cc(C)cn1` (stereo unspecified) | 26.62 | 87.27 |